Source: PubChem BioAssay AID2685 (National Center for Advancing Translational Sciences (NCATS), 2010)
This is one part of the list. Shown are side measurements of this screen, not its main read-out; they come without a call. Most of these compounds were active or inconclusive in the main read-out, so they are no random draw. Words in brackets tell the shape of the fitted curve; partial curves, single points and poor fits give uncertain potencies.

Test: qHTS Assay for Lipid Storage Modulators in Drosophila S3 Cells;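 for cell number change: cells counted by Cell Tracker Red CMTPX staining in the red channel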
Details: BODIPY lipid droplet fluorescence, 18-24 h; for cell number change: measured here: cell count max response, cells fed with added oleic acid
How it was run: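 Drosophila S3 cells got compounds at several concentrations plus oleic acid (400 uM solution). Laser-scanning cytometry with 488 nm excitation read lipid droplets at 500-530 nm and cells at 575-640 nm. Percent activity was relative to 20 uM Triacsin C.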

[1] = measured here: lipid fluorescence (Fed channel) AC50, cells fed with added oleic acid
[2] = measured here: cell number channel AC50, cells fed with added oleic acid

Row | SMILES | cell number change [%] | AC50 [1] | AC50 [2]
1 | Cc1cc([N+](=O)[O-])ccc1NC(=O)c1cncc(Br)c1 | 6.68 | 20.6 µM [rising, partial curve] | –
2 | Cc1ccc(S(=O)(=O)/N=C(\N)Nc2nc(C)c3ccccc3n2)cc1 | 12.9 | 0.0651 µM [rising, full curve, poor fit] | –
3 | O=C(CN1C(=O)CC(c2ccccc2)=Nc2ccccc21)NCc1ccco1 | – | 2.31 µM [rising, partial curve] | 3.26 µM [rising, single point]
4 | COc1ccc(/C=N/N2CCN(c3ccccc3OC)CC2)cc1Br | 5.84 | 29.1 µM [falling, single point] | –
5 | CCCN(Cc1ccc(N(C)C)cc1)CC1CC1 | 4.81 | – | –
6 | Cn1c(SCC(=O)N2CCOCC2)nnc1-c1cccc(NC(=O)c2ccccc2)c1 | -11.3 | – | –
7 | CCN(C(=O)CN1CCOCC1)c1c(N)n(Cc2ccccc2)c(=O)[nH]c1=O | – | 0.58 µM [falling, partial curve] | –
8 | Cc1ccc(OCC(O)Cn2c(N3CCCCC3)nc3c2c(=O)[nH]c(=O)n3C)cc1 (centres undefined) | 28.9 | – | 0.731 µM [rising, full curve, poor fit]
9 | Cc1cc(-c2cccs2)nc(-n2cccc2)n1 | 19.8 | 13 µM [rising, partial curve] | –
10 | O=C(Nc1nc(-c2ccccc2)cs1)c1ccc(S(=O)(=O)N2CCc3ccccc32)cc1 | 15.9 | 6.51 µM [rising, single point] | –
11 | CCCCn1c(N)c(N(CCOC)C(=O)c2ccc(-c3ccccc3)cc2)c(=O)[nH]c1=O | 11.5 | – | –
12 | O=C(/C=C/C(=O)NCc1cccs1)NCc1cccs1 | 22.3 | 29.1 µM [rising, single point] | –
13 | O=C(NCCCn1ccnc1)c1ccc(NS(=O)(=O)c2cccc([N+](=O)[O-])c2)cc1 | 10.3 | 18.4 µM [rising, single point] | –
14 | COc1ccccc1NC(=O)C1=C(C)NC2=C(C(=O)CCC2)C1c1ccc2c(c1)OCO2 (centres undefined) | 4.52 | 4.61 µM [rising, full curve, poor fit] | –
15 | O=C(COc1ncnc2cc([N+](=O)[O-])ccc12)NC(=O)NC1CCCCC1 | 34.6 | – | 32.6 µM [rising, single point]
16 | Cc1ccc(C(=O)NC(=S)NNC(=O)c2cccc([N+](=O)[O-])c2)cc1 | -5.61 | – | –
17 | Cc1c(C(=O)N2CCN(c3ncccn3)CC2)sc2nc3n(c(=O)c12)CCCC3 | 3.85 | 0.651 µM [rising, single point] | –
18 | Nc1nonc1C(=O)N/N=C/c1ccc(-c2cccc(C(=O)O)c2)o1 | -38.7 | – | 23.1 µM [falling, single point]
19 | CCn1ccnc1C(O)(c1ccccc1)c1ccccc1 | 5.47 | – | –

Row | SMILES | cell number change [%] | AC50 [1] | AC50 [2]
20 | Cc1ccccc1/C=C\c1nc2ccccc2c(=O)[nH]1 | -40.3 | 11.6 µM [falling, partial curve] | 11.6 µM [falling, partial curve, poor fit]
21 | COc1ccc(/C=C/C(=O)N(Cc2ccccc2)c2ccccn2)cc1OC | -35.7 | 32.6 µM [falling, single point] | 29.1 µM [falling, single point]
22 | CCC(C(=O)NC1CCCCCC1)n1nc(C)n2c(cc3occc32)c1=O (centres undefined) | 30.2 | – | 0.58 µM [rising, full curve, poor fit]
23 | S=C(NCCc1ccccc1)Nc1ccc(Cl)cc1 | -0.161 | 6.51 µM [rising, single point] | –
24 | COc1ccc2nc(C)cc(SCC(=O)Nc3c(C)cc(C)cc3C)c2c1 | 30.2 | – | 0.116 µM [rising, full curve, poor fit]
25 | CC1=C(C(=O)Nc2ccccc2)C(c2ccc(Cl)cc2)n2c(s/c(=C/c3cccc(OCC(=O)O)c3)c2=O)=N1 (centres undefined) | -23 | – | 7.31 µM [falling, single point]
26 | O=C(CNS(=O)(=O)c1ccccc1)OCC(=O)c1ccc(Br)cc1 | 13.9 | – | –
27 | Cc1c(C)c2ccc(O)c(CN3CCCC3)c2oc1=O | 19 | 0.461 µM [falling, single point] | –
28 | CCOC(=O)CSc1cccc2cccnc12 | -38 | – | 8.2 µM [falling, partial curve]
29 | Cc1ccc(S(=O)(=O)N2CCOCC2)cc1NC(=O)Cn1nc(C)c([N+](=O)[O-])c1C | -25 | – | –
30 | COc1cc2[nH]c(=S)nc(NC3CCCC3)c2cc1OC | -26 | 25.9 µM [falling, single point] | –
31 | CC1=C(C(=O)OC2CCCCC2)C(c2ccccc2)NC(=O)N1 (centres undefined) | -67.5 | 0.0058 µM [falling, full curve, poor fit] | 16.4 µM [falling, partial curve, poor fit]
32 | CCSc1nc2c(c(=O)[nH]1)C(c1cccnc1)C(C(=O)OC(C)C)=C(C)N2 (centres undefined) | -17.8 | 20.6 µM [falling, single point] | –
33 | O=P(O)(O)CP(=O)(O)O | -15.9 | – | 6.51 µM [falling, single point]
34 | Cc1cccc(NC(=O)Cn2cnc3ccc(S(=O)(=O)N4CCC(C)CC4)cc3c2=O)n1 | 13.4 | 0.411 µM [falling, single point] | –
35 | Cc1nn(Cc2ccccc2)c(Cl)c1C(=O)OCc1nnc(-c2ccc(Cl)cc2)o1 | -1.32 | 0.461 µM [rising, full curve] | 0.291 µM [rising, partial curve, poor fit]
36 | Cc1c(OC(C)C(=O)NCc2ccncc2)ccc2c3c(c(=O)oc12)CCCC3 (centres undefined) | -22.4 | 5.17 µM [falling, single point] | 4.11 µM [falling, full curve, poor fit]
37 | CN(C)CCNC(=O)/C(=C/c1ccc(-c2ccc(Cl)cc2Cl)o1)NC(=O)c1ccccc1 | -50.8 | 0.291 µM [falling, full curve] | 10.3 µM [falling, partial curve, poor fit]
38 | Nc1nnc(SCc2coc(-c3ccc(Cl)cc3)n2)s1 | 16.5 | 2.06 µM [rising, partial curve] | –

Entries 20 through 30, quoted:
Row | SMILES | cell number change [%] | AC50 [1] | AC50 [2]
20 | Cc1ccccc1/C=C\c1nc2ccccc2c(=O)[nH]1 | -40.3 | 11.6 µM [falling, partial curve] | 11.6 µM [falling, partial curve, poor fit]
21 | COc1ccc(/C=C/C(=O)N(Cc2ccccc2)c2ccccn2)cc1OC | -35.7 | 32.6 µM [falling, single point] | 29.1 µM [falling, single point]
22 | CCC(C(=O)NC1CCCCCC1)n1nc(C)n2c(cc3occc32)c1=O (centres undefined) | 30.2 | – | 0.58 µM [rising, full curve, poor fit]
23 | S=C(NCCc1ccccc1)Nc1ccc(Cl)cc1 | -0.161 | 6.51 µM [rising, single point] | –
24 | COc1ccc2nc(C)cc(SCC(=O)Nc3c(C)cc(C)cc3C)c2c1 | 30.2 | – | 0.116 µM [rising, full curve, poor fit]
25 | CC1=C(C(=O)Nc2ccccc2)C(c2ccc(Cl)cc2)n2c(s/c(=C/c3cccc(OCC(=O)O)c3)c2=O)=N1 (centres undefined) | -23 | – | 7.31 µM [falling, single point]
26 | O=C(CNS(=O)(=O)c1ccccc1)OCC(=O)c1ccc(Br)cc1 | 13.9 | – | –
27 | Cc1c(C)c2ccc(O)c(CN3CCCC3)c2oc1=O | 19 | 0.461 µM [falling, single point] | –
28 | CCOC(=O)CSc1cccc2cccnc12 | -38 | – | 8.2 µM [falling, partial curve]
29 | Cc1ccc(S(=O)(=O)N2CCOCC2)cc1NC(=O)Cn1nc(C)c([N+](=O)[O-])c1C | -25 | – | –
30 | COc1cc2[nH]c(=S)nc(NC3CCCC3)c2cc1OC | -26 | 25.9 µM [falling, single point] | –
